From PMC11589570, “Critical assessment of LC3/GABARAP ligands used for degrader development and ligandability of LC3/GABARAP binding pockets” (Nature Communications, 2024)
Where “and” joins values, the source holds several entries; their conditions need not be identical. Equal values may be shown once. This continues a long series; more values of the same kind are listed elsewhere.

Test system: U2OS cells
Experiment: Cell growth assay (IncuCyte confluence over 72 h)
Format: cell-based
Design: key: % of well area covered by cells (confluence)
Settings: listed as AN2
How it was run: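 U2OS cells were grown in DMEM with 10% FBS for 24 h before treatment. Confluence was then tracked by IncuCyte phase imaging over 72 h and expressed as % of well area covered by cells. Each point is the average of three wells.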

O=c1cc(-c2ccccc2)c2c(O)cc(O)cc2o1 [compound 2]
U2OS cell growth (100 nM, time 12 h): 34.3423 and 38.3293 and 32.538 | U2OS cell growth (100 nM, time 14 h): 35.477 and 39.741 and 36.4964 | U2OS cell growth (100 nM, time 16 h): 37.5326 and 46.1001 and 39.0596 | U2OS cell growth (100 nM, time 18 h): 40.4627 and 48.8702 and 35.6284 | U2OS cell growth (100 nM, time 20 h): 44.6709 and 45.0971 and 41.9388 | U2OS cell growth (100 nM, time 22 h): 43.4234 and 54.7584 and 46.3049 | U2OS cell growth (100 nM, time 24 h): 44.0555 and 57.1247 and 42.0827 | U2OS cell growth (100 nM, time 26 h): 47.7103 and 58.3648 and 50.2935 | U2OS cell growth (100 nM, time 28 h): 53.5819 and 61.2432 and 48.7471 | U2OS cell growth (100 nM, time 30 h): 48.7233 and 63.9047 and 49.197 | U2OS cell growth (100 nM, time 32 h): 58.2927 and 62.0443 and 60.2496 | U2OS cell growth (100 nM, time 34 h): 59.4673 and 70.7378 and 66.2512 | U2OS cell growth (100 nM, time 36 h): 56.9666 and 70.4292 and 57.2311 | U2OS cell growth (100 nM, time 38 h): 70.6752 and 77.1372 and 72.8151 | U2OS cell growth (100 nM, time 40 h): 60.4802 and 74.9999 and 59.8685 | U2OS cell growth (100 nM, time 42 h): 61.7718 and 79.8159 and 68.5707 | U2OS cell growth (100 nM, time 44 h): 77.2652 and 81.5206 and 77.0732 | U2OS cell growth (100 nM, time 46 h): 72.1626 and 78.4794 and 67.8392 | U2OS cell growth (100 nM, time 48 h): 73.864 and 86.5187 and 78.6619 | U2OS cell growth (100 nM, time 50 h): 77.3939 and 88.7182 and 76.3855 | U2OS cell growth (100 nM, time 52 h): 76.6283 and 91.2888 and 80.9609 | U2OS cell growth (100 nM, time 54 h): 86.1144 and 89.7354 and 90.3047 | U2OS cell growth (100 nM, time 56 h): 86.2269 and 94.4191 and 81.7281 | U2OS cell growth (100 nM, time 58 h): 85.0839 and 95.5732 and 89.3513 | U2OS cell growth (100 nM, time 60 h): 97.2305 and 98.5479 and 98.1519 | U2OS cell growth (100 nM, time 62 h): 90.5339 and 96.8128 and 92.4939 | U2OS cell growth (100 nM, time 64 h): 92.4611 and 96.1155 and 94.919 | U2OS cell growth (100 nM, time 66 h): 92.9609 and 97.0174 and 92.4805 | U2OS cell growth (100 nM, time 68 h): 93.5362 and 99.5096 and 94.9483 | U2OS cell growth (100 nM, time 70 h): 97.821 and 98.7842 and 95.4507 | U2OS cell growth (100 nM, time 72 h): 96.6913 and 98.9826 and 93.4854 | U2OS cell growth (500 nM, time 12 h): 47.1284 and 43.5481 and 39.0428 | U2OS cell growth (500 nM, time 14 h): 49.5409 and 49.1387 and 42.0975 | U2OS cell growth (500 nM, time 16 h): 55.7175 and 52.245 and 48.6905 | U2OS cell growth (500 nM, time 18 h): 55.6236 and 52.599 and 48.546 | U2OS cell growth (500 nM, time 20 h): 53.0213 and 55.366 and 47.3648 | U2OS cell growth (500 nM, time 22 h): 62.5761 and 54.1744 and 45.7257 | U2OS cell growth (500 nM, time 24 h): 65.2798 and 60.0343 and 52.802 | U2OS cell growth (500 nM, time 26 h): 66.2082 and 62.2524 and 57.7172 | U2OS cell growth (500 nM, time 28 h): 66.0407 and 65.7812 and 56.545 | U2OS cell growth (500 nM, time 30 h): 67.1951 and 62.4895 and 64.6895 | U2OS cell growth (500 nM, time 32 h): 68.2031 and 68.0485 and 57.2869 | U2OS cell growth (500 nM, time 34 h): 71.4453 and 71.9788 and 67.232 | U2OS cell growth (500 nM, time 36 h): 76.2204 and 71.0328 and 69.6923 | U2OS cell growth (500 nM, time 38 h): 80.7 and 79.9069 and 75.8523 | U2OS cell growth (500 nM, time 40 h): 86.4278 and 80.9253 and 76.5176 | U2OS cell growth (500 nM, time 42 h): 85.4718 and 77.5726 and 80.0637 | U2OS cell growth (500 nM, time 44 h): 87.8795 and 85.8834 and 85.7665 | U2OS cell growth (500 nM, time 46 h): 84.3372 and 82.7204 and 76.036 | U2OS cell growth (500 nM, time 48 h): 90.2037 and 90.173 and 87.5361 | U2OS cell growth (500 nM, time 50 h): 90.926 and 89.6499 and 89.2282 | U2OS cell growth (500 nM, time 52 h): 93.0151 and 91.88 and 90.454 | U2OS cell growth (500 nM, time 54 h): 93.5517 and 91.3108 and 88.0622 | U2OS cell growth (500 nM, time 56 h): 95.1988 and 91.5945 and 93.4435 | U2OS cell growth (500 nM, time 58 h): 96.3749 and 95.7072 and 95.5313 | U2OS cell growth (500 nM, time 60 h): 98.1371 and 97.1435 and 98.0383 | U2OS cell growth (500 nM, time 62 h): 96.9808 and 96.3633 and 97.3892 | U2OS cell growth (500 nM, time 64 h): 97.3563 and 98.342 and 96.5917 | U2OS cell growth (500 nM, time 66 h): 98.6951 and 98.2083 and 98.321 | U2OS cell growth (500 nM, time 68 h): 99.0579 and 99.2791 and 98.7257 | U2OS cell growth (500 nM, time 70 h): 99.2172 and 99.0058 and 98.0474 | U2OS cell growth (500 nM, time 72 h): 99.3835 and 97.9774 and 98.1535 | U2OS cell growth (1 uM, time 12 h): 52.6588 and 56.1691 | U2OS cell growth (1 uM, time 14 h): 51.9925 and 52.7616 and 54.7585 | U2OS cell growth (1 uM, time 16 h): 56.6031 and 55.0152 and 61.691 | U2OS cell growth (1 uM, time 18 h): 53.5235 and 58.7802 and 62.5194 | U2OS cell growth (1 uM, time 20 h): 51.6313 and 54.693 and 62.941 | U2OS cell growth (1 uM, time 22 h): 57.6685 and 62.7904 and 65.694 | U2OS cell growth (1 uM, time 24 h): 56.205 and 62.4356 and 67.5479 | U2OS cell growth (1 uM, time 26 h): 62.9207 and 67.4036 and 73.4542 | U2OS cell growth (1 uM, time 28 h): 65.6927 and 67.0993 and 74.4534 | U2OS cell growth (1 uM, time 30 h): 75.0077 and 69.5357 and 80.2321 | U2OS cell growth (1 uM, time 32 h): 71.09 and 73.7077 and 83.8866 | U2OS cell growth (1 uM, time 34 h): 70.7522 and 76.3884 and 80.7929 | U2OS cell growth (1 uM, time 36 h): 78.8432 and 79.3635 and 85.9791 | U2OS cell growth (1 uM, time 38 h): 81.5973 and 78.4608 and 85.3992 | U2OS cell growth (1 uM, time 40 h): 83.0458 and 87.166 and 90.2856 | U2OS cell growth (1 uM, time 42 h): 87.5927 and 84.0348 and 91.3184 | U2OS cell growth (1 uM, time 44 h): 90.4866 and 90.4435 and 93.7263 | U2OS cell growth (1 uM, time 46 h): 86.8913 and 89.1886 and 91.2268 | U2OS cell growth (1 uM, time 48 h): 93.4668 and 93.1697 and 95.6703 | U2OS cell growth (1 uM, time 50 h): 90.5037 and 92.7974 and 94.6171 | U2OS cell growth (1 uM, time 52 h): 94.4565 and 94.6327 and 96.5524 | U2OS cell growth (1 uM, time 54 h): 95.1136 and 94.9498 and 97.5229 | U2OS cell growth (1 uM, time 56 h): 97.0429 and 98.2943 and 97.7676 | U2OS cell growth (1 uM, time 58 h): 97.7194 and 97.1073 and 98.1507 | U2OS cell growth (1 uM, time 60 h): 99.3852 and 99.6841 and 99.7561 | U2OS cell growth (1 uM, time 62 h): 98.8771 and 99.2249 and 99.2461 | U2OS cell growth (1 uM, time 64 h): 98.9508 and 99.5485 and 99.5018 | U2OS cell growth (1 uM, time 66 h): 99.536 and 99.4067 and 99.8248 | U2OS cell growth (1 uM, time 68 h): 99.4416 and 99.1046 and 99.7676 | U2OS cell growth (1 uM, time 70 h): 99.5903 and 99.8534 and 99.5556 | U2OS cell growth (1 uM, time 72 h): 99.5245 and 99.4087 and 99.4205
